Where a name gives a salt, the structure may show the parent alone. The list shows a part of the results. The calls rarely recur for the same compound in another form.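 Kinases, fused to nanoluciferase, were expressed in K562 cells; luminescence was measured every 4 h from 2 to 18 h as percent of control (DMSO = 100%, positive control = 0%). A time point is decreased if signal falls significantly (2 sigma). Hits were called by the authors by a rule that is not shown; the count of time points alone does not decide it.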
These compounds were tested against MAP2K2 (UniProt P36507) (assay: kinase-Nluc reporter destabilization hit call (1 = scored as downregulated) (binary); higher = compound decreases kinase abundance). Settings: K562; 2-18 h.

kinase-Nluc reporter destabilization hit call, inactive:
Cn1cc(Nc2nccc(N3C[C@H]4CC[C@@H](C3)N4C(=O)[C@@H]3CC3(F)F)n2)cn1 (10 µM) 0, CC(C)=CC(=O)CCC(=O)N1CCN(Cc2cc3nc(-c4cccc5[nH]ncc45)nc(N4CCOCC4)c3s2)CC1 (10 µM) 0, CN(C)CCN(Cc1ccc(Cl)cc1)c1ccccn1 [Chloropyramine hydrochloride] (10 µM) 0, COc1cc([N+](=O)[O-])ccc1S(=O)(=O)N1C[C@@H](CN2CCN(c3ccccn3)CC2)[C@H](c2cccc(F)c2)C1 (relative stereo) (10 µM) 0, Cc1noc(C)c1-c1ccc(-c2cc(C(N)=O)c(NC(N)=O)s2)c(O[C@H]2CCNC2)c1 (10 µM) 0, CC(C)(C)NC(=O)c1cncn1C1CCN(c2ccc(-c3nnc(C(F)(F)F)o3)cn2)CC1 (10 µM) 0, COc1cccc(-n2c(=O)[nH]c3cc(Cl)n(-c4ccc(-c5cccc(OC)c5O)cc4)c3c2=O)c1 (2.5 µM) 0, O=C(Nc1cccnc1)c1cc(C(=O)c2c(F)cccc2Br)c[nH]1 (10 µM) 0, O=C(Nc1cc(Oc2cc(F)c(NC(=O)C3(C(=O)Nc4ccc(F)cc4)CC3)cc2F)ccn1)C1CC1 [Altiratinib] (10 µM) 0, O=C1NC(=O)C(=Cc2ccc(-c3ccc(F)cc3)o2)S1 (stereo in doubt) (10 µM) 0, O=C(NC(NC(=S)Nc1ccc(F)c([N+](=O)[O-])c1)C(Cl)(Cl)Cl)C(c1ccccc1)c1ccccc1 (stereo unspecified) (10 µM) 0

From the supplement of paper PMC12823440, “Inhibitors supercharge kinase turnover through native proteolytic circuits” (Nature, 2025)
